Assay results published in PubChem BioAssay AID2685 (National Center for Advancing Translational Sciences (NCATS), 2010).
The other results are listed elsewhere or left out. Further columns of the screen follow, without active or inactive calls. Most of these compounds were active or inconclusive in the main read-out, so they are no random draw. Potencies come from curve fits of mixed quality, noted in brackets.

Assay: qHTS Assay for Lipid Storage Modulators in Drosophila S3 Cells;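 as to cell number change: cells counted by Cell Tracker Red CMTPX staining in the red channel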
Conditions: BODIPY lipid droplet fluorescence, 18-24 h; for cell number change: measured here: cell count max response, cells fed with added oleic acid
Procedure, shortened: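 Laser-scanning cytometry quantifies lipid droplet accumulation (500–530 nm total intensity; droplet/cell object ratio) in oleic acid-fed (400 uM added) Drosophila S3 cells treated with a concentration series. 20 uM Triacsin C defined 100% inhibition.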

[1] = measured here: lipid fluorescence (Fed channel) AC50, cells fed with added oleic acid
[2] = measured here: cell number channel AC50, cells fed with added oleic acid

SMILES	cell number change [%]	AC50 [1]	AC50 [2]
COc1cccc(NC(=O)CN(c2cccc(OC)c2)S(C)(=O)=O)c1	-6.77	0.164 µM [falling, full curve, poor fit]	
CCOc1ccc(OCCC(=O)NNC(=O)c2ccccc2Cl)cc1	61	6.51 µM [rising, partial curve]	13 µM [rising, partial curve]
C#CCOCCOCCOCCNc1nc(N2CCN(C(=O)CCCCCCCCCCNC(=O)[C@H](CCCCN)n3cc(CCO)nn3)CC2)nc(N2CCN(C(=O)CCCCCCCCCCNC(=O)[C@H](CCCN=C(N)N)n3cc(C[C@@H](C)CC)nn3)CC2)n1	-60.7	11.6 µM [falling, single point]	18.4 µM [falling, single point]
O=C1CCCCCN1C(=O)c1cccc(C(=O)N2CCCCCC2=O)c1	6.45	29.1 µM [falling, single point]	
Cc1ccnc(Nc2nc(-c3ccc(O)c(O)c3)cs2)c1	-48.9		29.1 µM [falling, single point]
CN(CC(=O)Nc1cc([N+](=O)[O-])ccc1Cl)Cc1ccc(Br)cc1	1.16	0.731 µM [rising, single point]	
O=C(CCCCCN1C(=O)[C@@H]2Cc3ccccc3CN2C1=O)Nc1ccccc1F		0.291 µM [rising, partial curve, poor fit]	
COc1cccc(CN2CC(C(=O)NCCc3ccccc3C(F)(F)F)CCC2=O)c1 (configuration not stated)	37.8	29.1 µM [rising, single point]	
COc1ccc(NC(=O)c2cc([N+](=O)[O-])ccc2NC(=O)CNC2CCCCC2C)c(OC)c1 (configuration not stated)	-15.1	4.11 µM [falling, full curve, poor fit]	
CCOc1ccc2nc(/N=C/c3c(C)[nH]n(-c4ccc(C)cc4)c3=O)sc2c1	-11.7		6.51 µM [rising, single point]
COC(=O)c1cc(NC(=O)Cn2c(=O)oc3ccccc32)cc(C(=O)OC)c1	49.2	6.51 µM [falling, single point]	
Cc1ccc(SCCC(=O)OC(C)C(=O)Nc2ccccc2)cc1 (configuration not stated)	16.3	16.4 µM [falling, single point]	
CC(=O)c1cc2c(cc1NC(=O)c1cc3nc(C(C)C)cc(C(F)(F)F)n3n1)OCO2	38	0.103 µM [rising, full curve, poor fit]	0.103 µM [rising, full curve, poor fit]
COc1ccccc1N1CCN(C(=O)C(C)N(c2ccccc2)S(C)(=O)=O)CC1 (configuration not stated)	24.8	0.731 µM [rising, full curve, poor fit]	
COc1ccccc1N1CCN(Cc2nc(N)nc(Nc3ccc(C)c(Cl)c3)n2)CC1	-85.1	0.651 µM [rising, partial curve, poor fit]	
O=C(CS(=O)(=O)Cc1ccccc1)N1CCN(C(=O)c2ccco2)CC1	-16		
O=C(Nc1ccc(N2CCCCC2)cc1)c1ccc(F)cc1	39.4	29.1 µM [rising, single point]	29.1 µM [rising, single point]
O=C(COC(=O)c1cccs1)NCCCc1ccccc1	28.2	6.51 µM [falling, partial curve, poor fit]	
Cc1ccc(C(=O)C(C)OC(=O)c2nc(Cl)ccc2Cl)cc1 (configuration not stated)	10.3	20.6 µM [rising, single point]	
O=C(CNC(=O)c1cccc(F)c1)N/N=C/c1ccc([N+](=O)[O-])s1	-34.7	20.6 µM [falling, partial curve]	23.1 µM [falling, partial curve, poor fit]

SMILES	cell number change [%]	AC50 [1]	AC50 [2]
COc1ccc(/C=C2\CCCC3C2=NC(=S)NC3c2ccc(OC)cc2)cc1 (configuration not stated)	7.46		
CCN(CC)c1ccc(N)cc1	-83.4	0.82 µM [rising, single point]	8.2 µM [falling, single point]
FC(F)Oc1ccccc1NC(=S)Nc1cccc(Cl)c1Cl	-17.3	7.31 µM [rising, partial curve, poor fit]	
Cc1ccc(C)c(N2CCN(C(=O)c3cc(S(=O)(=O)N4CCOCC4)cn3C)CC2)c1	4.32	0.184 µM [falling, full curve, poor fit]	
Cc1cc(NC(=O)CSc2nc(=O)n3cccc(C)c3n2)no1	28.2		0.146 µM [rising, full curve, poor fit]
CCCCCCC(C)OC(=O)c1ccccc1C(=O)O (configuration not stated)	-16.1	29.1 µM [rising, single point]	
CCCNC(=O)/C(C#N)=C1\N=C(NC(=O)c2ccco2)c2ccccc21	-9.89	29.1 µM [falling, single point]	
Cc1ccc(SC[C@H](C)CN2CC[C@H](NC(=O)OCc3ccccc3)CCC2=O)cc1	0.971		
O=C(NC(Cc1ccccc1)C(=O)NCCc1ccccn1)c1cccs1 (configuration not stated)	-4.96		
O=C(CSc1nnnn1-c1ccc2c(c1)OCCO2)Nc1nc2c(s1)CCCC2	-18.3	5.8 µM [rising, partial curve]	
Cc1ccccc1OCCC(=O)OCC(=O)NC1CCS(=O)(=O)C1 (configuration not stated)	-32.6	11.6 µM [falling, partial curve]	3.26 µM [falling, full curve]
CC1CCc2c(c3ccccc3n2C(=O)CCl)C1 (configuration not stated)	-20.1	2.91 µM [falling, partial curve]	
O=C(O)C1C2CCC(O2)C1C(=O)Nc1ccc(OC(F)F)cc1 (configuration not stated)	-0.275		
CCOc1ccccc1OCc1nn2c(-c3ccc(C)cc3)nnc2s1	3.31		
O=C1N/C(=C\c2ccc(O)cc2)C(=O)c2ccccc21	-17.2		
Fc1cc(Br)ccc1Nc1nc2ccccc2n2nnnc12	-51.1	7.31 µM [falling, partial curve]	6.51 µM [falling, full curve]
COc1ccc(N(CC(=O)Nc2ccccc2OC)S(=O)(=O)c2ccc(OC)c(OC)c2)cc1	13.7		
COc1ccc(C(=O)n2nc(-c3ccc(C)cc3)nc2N)cc1OC	2.03	0.00411 µM [rising, full curve, poor fit]	
O=C(CCC(=O)c1cccs1)OCC(=O)N1CCN(C(=O)c2ccco2)CC1	-19.2		
Cc1ccc(C)c(N2CCN(C(=O)c3ccc(Cl)c(NC4=NC5CS(=O)(=O)CC5S4)c3)CC2)c1 (configuration not stated)		29.1 µM [falling, single point]	

Four compounds picked at random from those above, as already listed:
SMILES	cell number change [%]	AC50 [1]	AC50 [2]
CCCCCCC(C)OC(=O)c1ccccc1C(=O)O (configuration not stated)	-16.1	29.1 µM [rising, single point]	
COc1cccc(CN2CC(C(=O)NCCc3ccccc3C(F)(F)F)CCC2=O)c1 (configuration not stated)	37.8	29.1 µM [rising, single point]	
CN(CC(=O)Nc1cc([N+](=O)[O-])ccc1Cl)Cc1ccc(Br)cc1	1.16	0.731 µM [rising, single point]	
O=C(CCCCCN1C(=O)[C@@H]2Cc3ccccc3CN2C1=O)Nc1ccccc1F		0.291 µM [rising, partial curve, poor fit]	

(listing goes on)

SMILES	cell number change [%]	AC50 [1]	AC50 [2]
O=C1c2ccccc2C(=O)N1CCN1CCc2ccccc21	-1.87	1.46 µM [rising, full curve, poor fit]	
COC(=O)c1ccc(Oc2c(F)c(F)nc(N3CCOCC3)c2F)cc1	-23.3	23.1 µM [falling, single point]	
CC1=CSC2=NC(=O)/C(=C/c3cccc(OC(=O)c4ccco4)c3)C(=N)N12	17	1.03 µM [rising, partial curve]	
Nc1cc(Nc2ccccc2)c2nonc2c1[N+](=O)[O-]	-82.6	2.06 µM [falling, full curve]	2.31 µM [falling, full curve]
COc1cc(NC(=O)c2cc([N+](=O)[O-])ccc2N2CCOCC2)ccc1NC(=O)c1ccco1	-51.9		13 µM [falling, partial curve, poor fit]
CCOC(=O)c1cc2c(=O)n3ccccc3nc2n(CC2CCCO2)c1=NC(=O)/C=C/c1ccccc1 (configuration not stated)		2.59 µM [rising, partial curve, poor fit]	
COC(=O)c1ccc(-c2ccc([C@H]3[C@H]4C=CC[C@@H](C)[C@@H]4C(=O)N3Cc3ccccc3)c(F)c2)cc1	-16.5		0.13 µM [falling, full curve, poor fit]
CC(C)CSC1=NSC2=NC(=O)/C(=C\c3coc4ccccc4c3=O)C(=N)N12	-0.388	29.1 µM [falling, single point]	
CCn1c(SCC(=O)N(C(C)C)C(C)C)nnc1-c1cc2ccccc2cc1O	-31	29.1 µM [falling, partial curve]	
Cn1c(=O)c2c(nc(SCC(=O)O)n2Cc2cccc(C(F)(F)F)c2)n(C)c1=O			0.58 µM [falling, single point]
Cc1csc(SCC(=O)Nc2sccc2C(N)=O)n1	43	0.461 µM [rising, partial curve, poor fit]	8.2 µM [rising, partial curve]
O=C(Nc1ccc2c(c1)OCCO2)c1ccc(CN2CCOCC2)cc1			0.103 µM [falling, full curve, poor fit]
CCOC(=O)c1cnc(SCc2nc(N)nc(Nc3ccccc3)n2)nc1N	3.28	2.31 µM [rising, full curve]	
CCOC(=O)c1sc(NC(=O)CSc2ccccn2)c(C#N)c1C	-52.8	29.1 µM [rising, single point]	14.6 µM [falling, single point]
CCC(C)N(CC(=O)NCc1ccc(OC)cc1)C(=O)c1csnn1 (configuration not stated)	1.63	0.259 µM [falling, full curve, poor fit]	
O=C(O)c1c[nH]c(=O)c2ccccc12	-18.2		
COc1ccc(C(C)=O)cc1COC(=O)c1ccc2c(c1)OCO2	-15.4	0.326 µM [rising, full curve, poor fit]	
Cc1ccc(CCNC(=O)C2CCCN(C(=O)N(C)C)C2)cc1 (configuration not stated)	15.8	0.00517 µM [rising, full curve, poor fit]	
